According to patent US8063093B2, “Potassium channel blockers and uses thereof” (priority 2005, dated 2011):
The structures given here were assigned with low confidence; some may be wrong.

Amino acid sequences for entries named in this document (tags omitted).
UniProt P16390, whole entry: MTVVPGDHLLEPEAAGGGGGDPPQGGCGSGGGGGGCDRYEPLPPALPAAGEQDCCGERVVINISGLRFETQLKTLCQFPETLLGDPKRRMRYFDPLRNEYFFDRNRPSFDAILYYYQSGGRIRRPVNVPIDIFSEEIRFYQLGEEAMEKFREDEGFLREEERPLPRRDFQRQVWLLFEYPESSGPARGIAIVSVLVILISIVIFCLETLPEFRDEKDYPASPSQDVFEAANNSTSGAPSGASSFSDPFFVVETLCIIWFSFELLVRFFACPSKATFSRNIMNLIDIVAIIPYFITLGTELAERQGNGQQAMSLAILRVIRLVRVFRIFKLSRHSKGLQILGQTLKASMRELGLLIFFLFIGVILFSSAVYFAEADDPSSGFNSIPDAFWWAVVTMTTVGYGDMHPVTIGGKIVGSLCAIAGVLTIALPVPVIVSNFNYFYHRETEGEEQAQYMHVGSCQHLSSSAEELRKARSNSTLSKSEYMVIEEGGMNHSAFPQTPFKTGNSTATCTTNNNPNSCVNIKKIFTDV

Target: Kv1.3 (L929 cells stably expressing mKv1.3 or activated human T cells) (Mus musculus, UniProt P16390)
Assay: Kv1.3 current blockade, whole-cell patch-clamp
Details: read-out: EC50 (nM) blockade; Table 8, compounds of formula I; bounds given in uM

Question: For `COc1c(C(C)=O)c(O)c(OCCOc2ccccn2)c2occc12`, which EC50 is on record?
Answer: The EC50 was over 10000 nM.
